These are yes or no findings as the source states them, for the method shown. Binding seen in cells or lysates may run through a third protein. Binding can be weak; no strength is given.
Legend:
[1] = target: p53 protein of 5637 cells (mutated TP53) (human (endogenous in 5637)) (UniProt P04637); assay: co-IP; p53 immunoprecipitated from T24 and 5637 cell lysates (IP lysis buffer with protease inhibitors, co-IP kit); immunoblot of input and IP samples; endogenous proteins
[2] = target: p53 protein of T24 cells (mutated TP53) (human (endogenous in T24)) (UniProt P04637); assay: as above

Sequences of proteins named here, by UniProt entry; tags and fusion partners are left off.
UniProt Q9P1Y6: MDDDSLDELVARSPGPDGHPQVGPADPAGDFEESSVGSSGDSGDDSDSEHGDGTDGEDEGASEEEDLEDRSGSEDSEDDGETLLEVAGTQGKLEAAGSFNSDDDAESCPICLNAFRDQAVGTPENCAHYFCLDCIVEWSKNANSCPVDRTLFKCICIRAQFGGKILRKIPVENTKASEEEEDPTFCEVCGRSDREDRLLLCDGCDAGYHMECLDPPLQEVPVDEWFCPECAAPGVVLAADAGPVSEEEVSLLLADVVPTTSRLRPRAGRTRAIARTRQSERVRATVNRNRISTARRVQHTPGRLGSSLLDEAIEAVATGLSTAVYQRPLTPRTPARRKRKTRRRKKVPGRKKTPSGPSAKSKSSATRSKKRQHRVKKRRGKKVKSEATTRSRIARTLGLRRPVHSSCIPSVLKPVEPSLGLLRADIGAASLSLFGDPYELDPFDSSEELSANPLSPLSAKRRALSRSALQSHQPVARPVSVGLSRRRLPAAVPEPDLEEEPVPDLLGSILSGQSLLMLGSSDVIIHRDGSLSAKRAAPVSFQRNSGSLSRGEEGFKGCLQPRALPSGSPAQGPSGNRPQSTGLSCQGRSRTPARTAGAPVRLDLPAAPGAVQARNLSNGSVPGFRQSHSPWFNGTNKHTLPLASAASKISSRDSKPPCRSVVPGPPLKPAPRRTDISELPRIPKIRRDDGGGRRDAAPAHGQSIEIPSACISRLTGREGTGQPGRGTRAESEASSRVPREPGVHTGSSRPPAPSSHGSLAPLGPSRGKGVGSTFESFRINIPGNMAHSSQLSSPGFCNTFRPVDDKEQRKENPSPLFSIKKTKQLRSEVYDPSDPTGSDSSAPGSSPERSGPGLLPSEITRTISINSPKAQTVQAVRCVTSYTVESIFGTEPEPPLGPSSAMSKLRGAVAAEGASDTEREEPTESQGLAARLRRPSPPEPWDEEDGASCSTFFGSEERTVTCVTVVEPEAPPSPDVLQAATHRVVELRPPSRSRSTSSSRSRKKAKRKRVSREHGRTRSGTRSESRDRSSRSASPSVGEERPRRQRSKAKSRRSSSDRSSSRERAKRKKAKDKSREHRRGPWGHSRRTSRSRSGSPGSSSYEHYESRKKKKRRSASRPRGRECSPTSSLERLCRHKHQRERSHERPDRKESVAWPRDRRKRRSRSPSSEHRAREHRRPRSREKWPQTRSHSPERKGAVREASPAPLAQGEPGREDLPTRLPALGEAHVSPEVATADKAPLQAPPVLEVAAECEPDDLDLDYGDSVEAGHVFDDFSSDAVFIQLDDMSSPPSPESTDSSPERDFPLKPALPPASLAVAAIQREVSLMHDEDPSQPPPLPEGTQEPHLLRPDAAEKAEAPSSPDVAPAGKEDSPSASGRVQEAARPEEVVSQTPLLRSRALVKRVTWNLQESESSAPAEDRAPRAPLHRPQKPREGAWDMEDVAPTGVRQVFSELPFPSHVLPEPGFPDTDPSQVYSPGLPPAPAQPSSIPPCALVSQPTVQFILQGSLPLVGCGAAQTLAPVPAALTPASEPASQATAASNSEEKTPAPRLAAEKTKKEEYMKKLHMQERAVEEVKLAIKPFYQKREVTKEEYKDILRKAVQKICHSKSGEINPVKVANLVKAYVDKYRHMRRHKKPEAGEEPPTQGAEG

binding [1]: binds
binding [2]: binds
Substance: PHRF1 (PHD and ring finger domain 1) (from UniProt Q9P1Y6 1-1649)

Source: publication PMC12850319
